{
  "source": "patent US11998606B2",
  "about": "“Compounds and methods for selective proteolysis of glucocorticoid receptors” (Board of Regents, The University of Texas System, priority 2018, dated 2024)",
  "tested_on": "PC3 cells",
  "experiment": "PC3 cell line clonogenic (colony formation) assay",
  "format": "cell-based",
  "settings": "3.3 μM or 10 μM, 10-14 days, versus DMSO control",
  "experimental": "PC3 cells are routinely maintained in RPMI 1640 media. Cell growth is determined using crystal violet staining. Cells are initially seeded at density of 1000 to 2000 cells per well in 6-well plates. 24 hours post-seeding, cells are treated with DMSO control, enzalutamide, RU-486 or various GR degraders at 3.3 μM or 10 μM concentration. Cells are allowed to grow under regular growth conditions for 10-14 days. Cells are then fixed with 80% MeOH and stained with crystal violet solution (0.05%) overnight. Plates are then washed in water, dried and scanned.",
  "note": "For at least one compound, name, drawing or mass did not settle the structure.",
  "data": [
    {"smiles": "CC#C[C@]1(O)CC[C@H]2[C@@H]3CCC4=CC(=O)CCC4=C3[C@@H](c3ccc(N(C)C)cc3)C[C@@]21C", "note": "[RU-486]", "values": [
      {"measurement": "Colony formation (crystal violet staining)", "value": "did not differ significantly from control"}
    ]}
  ]
}
